Laboratory results taken from PubChem BioAssay AID250 (DTP/NCI, 2004).
The list is a part of this screen's results and no random one: it is rich in T/C values a quarter to a half above the control, in often repeated tests (any T/C) and in doses without a T/C. Other doses and runs of a compound stand elsewhere. T/C gives the treated animals as a percentage of the vehicle group. Some doses have a count of surviving animals in place of a T/C: the source files T/C as zero there, which appears to mark a toxic dose or a test without result, not a measured value. Some survivor counts are full or nearly so, which does not show that the dose was tolerated: survival well below the control is almost never listed, so the zero probably covers shortened survival too. Survivors were counted at the toxicity check, usually on the fifth day, unless a day is given; later deaths do not show. Schedules are NCI's codes, taken here to give the interval after Q, in days (D) or hours (H), and the number of doses after X. Some schedule codes hold Z or #, which are not explained here. Where survival is the endpoint, this PubChem deposit counts one and a half times the control or more as active, and values a quarter to a half above the control carry no call in these data; other NCI protocols may use other cut-offs. Marks such as (2×) count equal records among those shown. Some doses were run more than once; the results are listed from low to high.

Tested on: BDF1 mice, L1210 leukemia sc, survival T/C
Assay: NCI In Vivo Anticancer Drug Screen. Data for tumor model L1210 Leukemia (subcutaneous) in B6D2F1 (BDF1) mice
Conditions: T/C endpoint: median survival time, vehicle: saline, higher T/C = longer survival
Procedure, shortened: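 Expressed as T/C: measurement in compound-treated, tumor-bearing mice relative to vehicle-treated control mice, based on survival or tumor size.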

O=P1(N(CCCl)CCCl)NCCCO1 (stereo unspecified)
T/C (dose: 108.0 mg/kg/injection, schedule: Q01DX001 (sc), run until all animals had died): 109 and 170 % of control
T/C (dose: 108.0 mg/kg/injection, schedule: Q01DX Z (sc), evaluated on day 34): 205 and 237 % of control
T/C (dose: 108.0 mg/kg/injection, schedule: Q01DX Z (sc), evaluated on day 40): 170 % of control
T/C (dose: 108.0 mg/kg/injection, schedule: Q01DX Z (sc), run until all animals had died): 150, 155 (2×), 194, 211, 225 % of control
survivor count (dose: 108.0 mg/kg/injection, schedule: Q01HX002 (ip)): 7 of 8
T/C (dose: 108.0 mg/kg/injection, schedule: Q07DX003 (sc), evaluated on day 6): 214 and 245 % of control
T/C (dose: 108.0 mg/kg/injection, schedule: Q07DX003 (sc), evaluated on day 7): 153, 183, 195, 204, 215, 268, 279 % of control
T/C (dose: 108.0 mg/kg/injection, schedule: Q07DX003 (sc), evaluated on day 30): 153, 204, 273 % of control
T/C (dose: 108.0 mg/kg/injection, schedule: Q07DX003 (sc), evaluated on day 33): 245 % of control
T/C (dose: 108.0 mg/kg/injection, schedule: Q07DX003 (sc), evaluated on day 35): 222 % of control
T/C (dose: 108.0 mg/kg/injection, schedule: Q07DX003 (sc), evaluated on day 36): 216 % of control
T/C (dose: 108.0 mg/kg/injection, schedule: Q07DX003 (sc), evaluated on day 40): 100 % of control
T/C (dose: 108.0 mg/kg/injection, schedule: Q07DX003 (sc), evaluated on day 45): 195 and 242 % of control
T/C (dose: 108.0 mg/kg/injection, schedule: Q08DX002 (sc), evaluated on day 7): 158 and 239 % of control
T/C (dose: 108.0 mg/kg/injection, schedule: Q08DX002 (sc), evaluated on day 32): 155 % of control
T/C (dose: 108.0 mg/kg/injection, schedule: Q08DX002 (sc), evaluated on day 36): 233 % of control
survivor count (dose: 108.0 mg/kg/injection, schedule: Q08DX003 (ip)): 7 of 8
T/C (dose: 180.0 mg/kg/injection, schedule: Q01DX001 (sc), evaluated on day 6): 223 % of control
T/C (dose: 180.0 mg/kg/injection, schedule: Q01DX001 (sc), evaluated on day 7): 182, 202, 221, 234 % of control
T/C (dose: 180.0 mg/kg/injection, schedule: Q01DX001 (sc), evaluated on day 30): 182 and 221 % of control
T/C (dose: 180.0 mg/kg/injection, schedule: Q01DX001 (sc), evaluated on day 32): 200 % of control
T/C (dose: 180.0 mg/kg/injection, schedule: Q01DX001 (sc), evaluated on day 33): 225 and 244 % of control
T/C (dose: 180.0 mg/kg/injection, schedule: Q01DX001 (sc), evaluated on day 35): 205 % of control
T/C (dose: 180.0 mg/kg/injection, schedule: Q01DX001 (sc), evaluated on day 36): 222 % of control
T/C (dose: 180.0 mg/kg/injection, schedule: Q01DX001 (sc), evaluated on day 40): 195 % of control
T/C (dose: 180.0 mg/kg/injection, schedule: Q01DX001 (sc), run until all animals had died): 195 and 205 % of control
T/C (dose: 180.0 mg/kg/injection, schedule: Q01DX Z (sc), evaluated on day 34): 187 % of control
T/C (dose: 180.0 mg/kg/injection, schedule: Q01DX Z (sc), evaluated on day 36): 100 % of control
T/C (dose: 180.0 mg/kg/injection, schedule: Q01DX Z (sc), evaluated on day 60): 154 % of control
survivor count (dose: 180.0 mg/kg/injection, schedule: Q01DX Z (sc)): 8 of 10
survivor count (dose: 180.0 mg/kg/injection, schedule: Q01HX002 (ip)): 8 of 8
T/C (dose: 180.0 mg/kg/injection, schedule: Q07DX003 (sc), evaluated on day 6): 303 and 313 % of control
T/C (dose: 180.0 mg/kg/injection, schedule: Q07DX003 (sc), evaluated on day 7): 156, 176, 188, 244, 326, 385 % of control
T/C (dose: 180.0 mg/kg/injection, schedule: Q07DX003 (sc), evaluated on day 30): 156, 176, 189 % of control
T/C (dose: 180.0 mg/kg/injection, schedule: Q07DX003 (sc), evaluated on day 33): 305 % of control
T/C (dose: 180.0 mg/kg/injection, schedule: Q07DX003 (sc), evaluated on day 35): 200 % of control
T/C (dose: 180.0 mg/kg/injection, schedule: Q07DX003 (sc), evaluated on day 36): 316 % of control
T/C (dose: 180.0 mg/kg/injection, schedule: Q07DX003 (sc), evaluated on day 40): 180 % of control
T/C (dose: 180.0 mg/kg/injection, schedule: Q07DX003 (sc), evaluated on day 45): 378 % of control
T/C (dose: 180.0 mg/kg/injection, schedule: Q08DX002 (sc), evaluated on day 7): 285 % of control (2×)
T/C (dose: 180.0 mg/kg/injection, schedule: Q08DX002 (sc), evaluated on day 32): 283 % of control
T/C (dose: 180.0 mg/kg/injection, schedule: Q08DX002 (sc), evaluated on day 36): 288 % of control
survivor count (dose: 180.0 mg/kg/injection, schedule: Q08DX003 (ip)): 8 of 8
T/C (dose: 200.0 mg/kg/injection, schedule: Q01DX001 (sc), evaluated on day 7): 174, 176, 197, 216, 220, 221, 222, 225, 226, 231 % of control (2×)
T/C (dose: 200.0 mg/kg/injection, schedule: Q01DX001 (sc), evaluated on day 9): 207 % of control
T/C (dose: 200.0 mg/kg/injection, schedule: Q01DX001 (sc), evaluated on day 21): 175 % of control
T/C (dose: 200.0 mg/kg/injection, schedule: Q01DX001 (sc), evaluated on day 31): 216 % of control
T/C (dose: 200.0 mg/kg/injection, schedule: Q01DX001 (sc), evaluated on day 32): 195 % of control
T/C (dose: 200.0 mg/kg/injection, schedule: Q01DX001 (sc), evaluated on day 34): 170 and 222 % of control
T/C (dose: 200.0 mg/kg/injection, schedule: Q01DX001 (sc), evaluated on day 36): 227 % of control
T/C (dose: 200.0 mg/kg/injection, schedule: Q01DX001 (sc), evaluated on day 37): 222 % of control
T/C (dose: 200.0 mg/kg/injection, schedule: Q01DX001 (sc), evaluated on day 40): 227 % of control
T/C (dose: 200.0 mg/kg/injection, schedule: Q01DX001 (sc), evaluated on day 43): 222 and 226 % of control
T/C (dose: 200.0 mg/kg/injection, schedule: Q01DX001 (sc), evaluated on day 60): 200 and 238 % of control
T/C (dose: 200.0 mg/kg/injection, schedule: Q01DX001 (sc), run until all animals had died): 195 % of control
T/C (dose: 200.0 mg/kg/injection, schedule: Q08DX002 (sc), evaluated on day 7): 180, 282, 301, 313, 344 % of control
T/C (dose: 200.0 mg/kg/injection, schedule: Q08DX002 (sc), evaluated on day 21): 175 % of control
T/C (dose: 200.0 mg/kg/injection, schedule: Q08DX002 (sc), evaluated on day 34): 275 % of control
T/C (dose: 200.0 mg/kg/injection, schedule: Q08DX002 (sc), evaluated on day 36): 300 % of control
T/C (dose: 200.0 mg/kg/injection, schedule: Q08DX002 (sc), evaluated on day 37): 316 % of control
T/C (dose: 200.0 mg/kg/injection, schedule: Q08DX002 (sc), evaluated on day 43): 333 % of control
